These are yes or no findings as the source states them, for the method shown. Binding seen in cells or lysates may run through a third protein. These calls come from enrichment with a bait or labelling near it, and not all partners need be listed.
molecular target: SFB-tagged IP6K1 (full length) (human) (UniProt Q92551); assay: affinity purification with mass spectrometry; SFB-tagged bait expressed in HEK293T; lysis in NETN buffer (20 mM Tris-HCl pH 8.0, 100 mM NaCl, 1 mM EDTA, 0.5% Nonidet P-40) at 4°C; tandem purification on streptavidin-sepharose (biotin elution) and S-protein agarose; in-gel trypsin digest, LTQ Orbitrap; replicate sets; SFB-GFP as control

The chains behind the UniProt entries cited, without tags or fusion partners.
UniProt Q92551: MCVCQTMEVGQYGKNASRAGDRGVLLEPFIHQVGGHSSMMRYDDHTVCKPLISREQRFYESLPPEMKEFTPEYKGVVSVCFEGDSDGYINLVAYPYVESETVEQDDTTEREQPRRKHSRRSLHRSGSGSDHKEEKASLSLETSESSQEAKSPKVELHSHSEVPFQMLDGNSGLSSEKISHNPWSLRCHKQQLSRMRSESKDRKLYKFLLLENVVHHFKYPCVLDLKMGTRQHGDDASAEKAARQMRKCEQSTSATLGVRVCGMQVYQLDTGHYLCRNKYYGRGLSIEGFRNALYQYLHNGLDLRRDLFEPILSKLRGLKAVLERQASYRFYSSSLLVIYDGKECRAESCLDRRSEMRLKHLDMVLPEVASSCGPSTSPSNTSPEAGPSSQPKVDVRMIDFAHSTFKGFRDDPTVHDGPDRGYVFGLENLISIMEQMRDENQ
UniProt Q14978: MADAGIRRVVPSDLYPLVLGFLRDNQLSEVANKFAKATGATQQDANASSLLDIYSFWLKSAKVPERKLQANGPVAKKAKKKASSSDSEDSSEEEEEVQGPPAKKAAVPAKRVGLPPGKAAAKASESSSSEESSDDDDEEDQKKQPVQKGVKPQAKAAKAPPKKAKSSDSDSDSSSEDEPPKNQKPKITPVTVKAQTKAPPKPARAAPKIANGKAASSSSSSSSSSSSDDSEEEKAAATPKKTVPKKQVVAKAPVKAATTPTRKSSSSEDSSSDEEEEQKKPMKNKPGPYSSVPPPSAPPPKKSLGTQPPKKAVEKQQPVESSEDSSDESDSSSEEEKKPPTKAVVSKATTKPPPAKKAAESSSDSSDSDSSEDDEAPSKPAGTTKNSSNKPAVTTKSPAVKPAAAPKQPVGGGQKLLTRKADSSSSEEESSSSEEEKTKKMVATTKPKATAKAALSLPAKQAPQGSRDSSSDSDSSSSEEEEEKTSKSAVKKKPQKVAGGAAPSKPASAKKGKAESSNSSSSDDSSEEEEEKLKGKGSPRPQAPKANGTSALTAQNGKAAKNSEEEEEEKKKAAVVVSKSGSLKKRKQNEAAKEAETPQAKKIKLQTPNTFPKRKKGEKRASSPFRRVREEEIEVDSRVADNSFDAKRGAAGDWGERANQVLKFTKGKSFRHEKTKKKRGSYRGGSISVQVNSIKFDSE
UniProt P67870: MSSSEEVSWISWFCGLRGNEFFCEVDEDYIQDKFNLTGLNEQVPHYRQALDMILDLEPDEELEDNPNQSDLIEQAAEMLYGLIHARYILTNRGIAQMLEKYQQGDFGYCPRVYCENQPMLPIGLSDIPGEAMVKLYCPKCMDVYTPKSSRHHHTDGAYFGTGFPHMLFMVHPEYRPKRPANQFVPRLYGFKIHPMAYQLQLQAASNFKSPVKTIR
UniProt Q04637: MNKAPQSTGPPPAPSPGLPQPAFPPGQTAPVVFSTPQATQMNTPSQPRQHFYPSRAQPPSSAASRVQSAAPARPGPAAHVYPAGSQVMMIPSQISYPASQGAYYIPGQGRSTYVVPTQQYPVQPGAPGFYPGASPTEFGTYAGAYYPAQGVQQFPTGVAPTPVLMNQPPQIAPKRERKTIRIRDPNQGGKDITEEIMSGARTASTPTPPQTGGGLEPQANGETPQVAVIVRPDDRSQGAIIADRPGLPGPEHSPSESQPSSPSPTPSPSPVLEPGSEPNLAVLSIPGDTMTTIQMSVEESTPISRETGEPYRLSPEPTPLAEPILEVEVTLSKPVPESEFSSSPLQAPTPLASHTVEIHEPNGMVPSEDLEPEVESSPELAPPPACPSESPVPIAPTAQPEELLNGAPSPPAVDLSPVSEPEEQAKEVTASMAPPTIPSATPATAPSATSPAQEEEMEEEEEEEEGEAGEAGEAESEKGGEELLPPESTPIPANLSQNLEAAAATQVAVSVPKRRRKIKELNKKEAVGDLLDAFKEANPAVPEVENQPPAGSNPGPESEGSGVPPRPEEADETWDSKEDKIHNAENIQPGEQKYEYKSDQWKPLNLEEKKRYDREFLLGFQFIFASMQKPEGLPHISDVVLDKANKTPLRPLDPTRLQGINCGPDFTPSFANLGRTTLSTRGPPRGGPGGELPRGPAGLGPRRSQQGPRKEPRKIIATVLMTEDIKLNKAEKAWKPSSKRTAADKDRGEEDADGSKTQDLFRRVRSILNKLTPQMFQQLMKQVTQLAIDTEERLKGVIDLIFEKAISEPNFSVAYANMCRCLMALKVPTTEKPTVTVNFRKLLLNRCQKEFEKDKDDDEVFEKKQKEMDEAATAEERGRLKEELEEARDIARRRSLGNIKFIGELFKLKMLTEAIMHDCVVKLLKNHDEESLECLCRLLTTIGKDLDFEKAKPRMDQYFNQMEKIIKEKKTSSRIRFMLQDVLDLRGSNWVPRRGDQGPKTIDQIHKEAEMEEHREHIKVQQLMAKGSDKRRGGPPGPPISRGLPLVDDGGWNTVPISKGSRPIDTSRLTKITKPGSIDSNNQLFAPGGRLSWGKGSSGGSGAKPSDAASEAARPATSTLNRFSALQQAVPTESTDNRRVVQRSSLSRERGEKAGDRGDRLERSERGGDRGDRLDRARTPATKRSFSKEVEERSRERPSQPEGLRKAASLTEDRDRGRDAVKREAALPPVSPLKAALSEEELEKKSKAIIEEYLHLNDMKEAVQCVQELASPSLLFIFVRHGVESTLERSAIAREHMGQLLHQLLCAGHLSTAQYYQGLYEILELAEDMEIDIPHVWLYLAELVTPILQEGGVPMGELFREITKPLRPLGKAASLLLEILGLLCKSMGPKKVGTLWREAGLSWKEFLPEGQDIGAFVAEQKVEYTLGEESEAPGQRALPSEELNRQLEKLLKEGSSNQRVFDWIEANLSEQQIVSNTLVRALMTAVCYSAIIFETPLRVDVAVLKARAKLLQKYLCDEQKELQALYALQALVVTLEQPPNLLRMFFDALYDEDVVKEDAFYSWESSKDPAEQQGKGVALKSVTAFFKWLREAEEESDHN

binding, binds:
endogenous NOLC1 (from UniProt Q14978 1-699)
catalytic α’ subunit of CK2 (CSK22), endogenous (from UniProt P19784 1-350) (enzyme)
regulatory β subunit of CK2 (CSK2B), endogenous (from UniProt P67870 1-215)
EIF4G1, endogenous (from UniProt Q04637 1-1599)

Reference: paper PMC11461180, “Interaction with IP6K1 supports pyrophosphorylation of substrate proteins by the inositol pyrophosphate 5-InsP7” (Bioscience Reports, 2024)
